In patent US20220105150A1, “AMPHIPATHIC ALPHA-HELICAL ANTIMICROBIAL PEPTIDES TREAT INFECTIONS BY GRAM-NEGATIVE PATHOGENS” (priority 2019, published 2022):
Read-outs that look alike come from different tables or passages of the source. At least one peptide structure holds a part that was inferred or is arguable (an end, a ring closure or a residue).

What was measured:
[1] = tested on: Acinetobacter baumannii strains resistant to Polymyxin B and Colistin; settings: geometric mean of MIC values from seven strains resistant to Polymyxin B and Colistin
Source text: The coupling procedure used 5 equivalents of Fmoc-D-amino acid or Fmoc-L-amino acid and HCTU (O-(1H-6-chlorobenzotriazole-1-yl)-1,1,3,3-tetramethyluronium hexafluorophosphate) and 6-Cl-HOBt (1-hydroxy-6-chloro-benztriazole) at 4.5 equivalents in DMF (Fisher Scientific, Denver, Colo.) and N-diisopropylethylamine (DIPEA) 10 equivalents (Oakwood Products, Inc., Estill, S.C.) in N-methyl-2-pyrrolidinone (NMP) (Fisher Scientific, Denver, Colo.) with the first and second couplings at room temperature for 30 min each. The deprotection procedure (removal of Fmoc protecting group) was carried out by treatment of the resin with 0.1 M HOBt (1-hydroxybenzotriazole) in DMF with 20% piperidine for 30 min. […] The resin was removed by filtration and peptide was precipitated with ice-cooled ethyl ether on ice for 15 min. […] Twenty minutes was allowed between runs for temperature equilibration. • Characterization of Helical Structure: The mean residue molar ellipticities of peptides were determined by circular dichroism (CD) spectroscopy, using a Jasco J-815 spectropolarimeter (Jasco Inc. Easton, Md., USA) at 5° C. under KP buffer (50 mM NaH2PO4/Na2HPO4/100 mM KCl, pH 7.0) as well as in the presence of an α-helix inducing solvent, 2,2,2-trifluoroethanol, TFE, (50 mM NaH2PO4/Na2HPO4/100 mM KCl, pH 7.0 buffer/50% TFE). […]

[2] = tested on: Acinetobacter baumannii isolates resistant to classical antibiotics; format: cell-based; settings: geometric mean over 20 strains
Source text: Thus, shortening the number of carbon atoms between the side-chain amino group and the α-carbon atom from four (Lys) to one (diaminopropionic acid) had very little effect on antibacterial activity (Table 2). We also determined the antibacterial activity of our five AMPs against 20 additional Acinetobacter baumannii isolates from four continents, 12 different countries and 17 different cities that were resistant to 18 different antibiotics. […] Thus, it is very clear that changing the type of positively-charged residue on the polar face of these AMPs had very little effect on the antibacterial activities.

[3] = tested on: A. baumannii strain 649; format: cell-based, Acinetobacter baumannii; settings: MH medium supplemented with 25% (v/v) human sera
Protocol: (§1) Hemoglobin release was determined spectrophotometrically at 570 nm.
Because only unbound AMP is available to interact with the therapeutic target, the extent of binding between AMPs and serum proteins can have significant effects on efficacy of these drugs. […] This assay estimates the in vivo bioavailability of our AMPs. […] An increase in MIC in the presence of serum is attributed to inhibition of antimicrobial activity due to binding to serum proteins.

[4] = Peptide hydrophobicity by RP-HPLC retention time; format: physicochemical; settings: RP-HPLC retention time at pH 2, 25° C.
Protocol: Column: Zorbax 300 SB-C8, 150×2.1 mm ID, 5-μm particle size, 300-Å pore size; conditions, linear AB gradient (0.25% acetonitrile/min) at a flow-rate of 0.3 ml/min, where eluent A was 20 mM aq. TFA and eluent B was 20 mM TFA in acetonitrile and the temperature was 25° C. The sequences of the ten peptides (with seven peptides containing Lys specificity determinants at positions 13 and 16 of the non-polar face (see FIG. 1) are shown in Table 1G. Peptide denotions in FIG. 4 have been abbreviated from those shown in Table 1G; for example, D87(Lys1-6 Arg-1) has been shortened to D87(6 Arg-1). For the peptides without specificity determinants, we have added A13/A16 to the peptide denotions. It is interesting that the Dab containing peptides are more hydrophilic than the Dap containing peptides even thought the Dab containing peptides have an additional carbon atom per Dab residue.
Retention behavior in reversed-phase chromatography is an excellent method to represent overall peptide hydrophobicity. […] All ten peptides used in this study could be readily separated by reversed-phase chromatography with the seven peptides with specificity determinants being much more hydrophilic than the three control peptides without specificity determinants (FIG. 4). […]

[5] = Helical structure by circular dichroism spectroscopy; format: physicochemical
[6] = Peptide self-association by temperature profiling in RP-HPLC; format: physicochemical
Protocol: Retention behavior from eight AMPs after normalization to their retention times at 5° C. over the temperature range 5° C. to 41° C. in 2° C. increments or 5° C. to 75° C. in 10° C. increments (methodology details provided in Examples). […] Peptide denotions in FIG. 5 have been abbreviated from those shown in Table 1G; for example, D87(Lys1-6 Arg-1) has been shortened to D87(6 Arg-1). RC is a random coil control peptide used for RP-HPLC temperature profiling. The peptide self-association parameter, PA, represents the maximum change in peptide retention time relative to the random coil peptide, RC (PA values shown in Table 6). […] T., et al. J. Med. Chem. 2019, 62:3354-66.
as §1
Peptide self-association, the ability to dimerize/oligomerize in aqueous solution, is a very important parameter to optimize antimicrobial activity and toxicity as measured by hemolytic activity. […] The ability of an AMP to self-associate was determined by a RP-HPLC technique developed in our laboratory, referred to as temperature profiling over the temperature range 5° C. to 80° C. […]

## CC(=O)N[C@H](CCCCN)C(=O)N[C@H](CC(C)C)C(=O)N[C@H](CCCN)C(=O)N[C@H](CO)C(=O)N[C@H](CC(C)C)C(=O)N[C@H](CC(C)C)C(=O)N[C@H](CCCN)C(=O)N[C@@H](C(=O)N[C@H](CC(C)C)C(=O)N[C@H](CO)C(=O)N[C@H](CCCN)C(=O)N[C@H](C)C(=O)N[C@H](C)C(=O)N[C@H](C)C(=O)N[C@H](C)C(=O)N[C@H](C)C(=O)N[C@H](CC(C)C)C(=O)N[C@H](CCCN)C(=O)N[C@@H](C(=O)N[C@H](CC(C)C)C(=O)N[C@H](CC(C)C)C(=O)N[C@H](CCCN)C(=O)N[C@H](C)C(=O)N[C@H](CC(C)C)C(=O)N[C@H](CO)C(=O)N[C@H](CCCN)C(N)=O)[C@H](C)O)[C@H](C)O [D85(K13A/K16A)-(Lys^1-6Orn-1), Ac-KL(Orn)SLL(Orn)TLS(Orn)AAAAAL(Orn)TLL(Orn)ALS(Orn)-amide]
[1]
  MICGM: 2.0 µM
[2]
  MICGM: 1.9 µM
[3]
  MIC 25% human serum: Precipitate
[3]; listed as D85 without specificity determinants
  MIC 25% human serum: precipitation
[4]
  Hydrophobicity pH 2 tR: 188.7 min
[5]; 100 mM KCl, 50 mM Na2HPO4/NaH2PO4, pH 7.0, 222 nm
  Aqueous pH 7 [θ]222: 9,269 mdeg cm^2/(dmol*res)
[5]; aqueous buffer containing 50% trifluoroethanol, 222 nm
  50% TFE [θ]222: 18,038 mdeg cm^2/(dmol*res)
[5]; difference 50% TFE minus aqueous
  Δ[Θ]222 TFE-aqueous: 8,769 mdeg cm^2/(dmol*res)
[5]; increase in molar ellipticity in the presence of 50% TFE
  % Helix Induced: 49%
[5]; relative to molar ellipticity of the peptide in 50% TFE
  Aqueous pH 7 % Helix: 51%
[6]; self-association parameter relative to random coil control peptide RC
  PA: 28.0 min
[6]; temperature at which maximum retention time is observed, 5-77° C.
  Tp: 41.0 °C
